The experiment deals with T1, Special AT-rich binding protein 2 (SATB2), GFP-tagged (human) (UniProt Q9UPW6).
T1 sequence: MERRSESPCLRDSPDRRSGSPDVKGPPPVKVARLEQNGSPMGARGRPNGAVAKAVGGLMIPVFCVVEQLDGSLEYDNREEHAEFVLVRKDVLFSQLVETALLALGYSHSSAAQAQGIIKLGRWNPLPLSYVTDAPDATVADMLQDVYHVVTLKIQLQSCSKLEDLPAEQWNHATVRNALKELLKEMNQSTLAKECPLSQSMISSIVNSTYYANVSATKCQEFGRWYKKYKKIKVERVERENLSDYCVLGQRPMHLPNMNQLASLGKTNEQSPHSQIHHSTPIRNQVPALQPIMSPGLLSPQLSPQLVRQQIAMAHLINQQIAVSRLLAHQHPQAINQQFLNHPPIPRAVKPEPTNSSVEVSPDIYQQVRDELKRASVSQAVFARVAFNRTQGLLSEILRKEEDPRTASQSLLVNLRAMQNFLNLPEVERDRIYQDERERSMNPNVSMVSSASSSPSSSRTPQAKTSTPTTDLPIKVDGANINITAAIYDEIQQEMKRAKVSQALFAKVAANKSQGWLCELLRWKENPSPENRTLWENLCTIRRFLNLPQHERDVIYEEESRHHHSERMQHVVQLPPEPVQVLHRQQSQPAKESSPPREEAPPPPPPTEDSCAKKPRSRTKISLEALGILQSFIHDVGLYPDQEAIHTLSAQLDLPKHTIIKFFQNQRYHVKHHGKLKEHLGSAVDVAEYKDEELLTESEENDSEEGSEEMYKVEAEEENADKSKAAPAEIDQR
In words: co-IP; lysate (Pierce IP Lysis Buffer, sonicated) of SATB2-GFP-circ-3×FLAG tagged BEAS-2B cells; Dynabeads Protein G pre-bound to SATB2 or anti-FLAG M2 antibody, overnight at 4 °C, 200 µg lysate protein; western blot.

Sequences of proteins named here, by UniProt entry; tags and fusion partners are left off.
UniProt Q92841: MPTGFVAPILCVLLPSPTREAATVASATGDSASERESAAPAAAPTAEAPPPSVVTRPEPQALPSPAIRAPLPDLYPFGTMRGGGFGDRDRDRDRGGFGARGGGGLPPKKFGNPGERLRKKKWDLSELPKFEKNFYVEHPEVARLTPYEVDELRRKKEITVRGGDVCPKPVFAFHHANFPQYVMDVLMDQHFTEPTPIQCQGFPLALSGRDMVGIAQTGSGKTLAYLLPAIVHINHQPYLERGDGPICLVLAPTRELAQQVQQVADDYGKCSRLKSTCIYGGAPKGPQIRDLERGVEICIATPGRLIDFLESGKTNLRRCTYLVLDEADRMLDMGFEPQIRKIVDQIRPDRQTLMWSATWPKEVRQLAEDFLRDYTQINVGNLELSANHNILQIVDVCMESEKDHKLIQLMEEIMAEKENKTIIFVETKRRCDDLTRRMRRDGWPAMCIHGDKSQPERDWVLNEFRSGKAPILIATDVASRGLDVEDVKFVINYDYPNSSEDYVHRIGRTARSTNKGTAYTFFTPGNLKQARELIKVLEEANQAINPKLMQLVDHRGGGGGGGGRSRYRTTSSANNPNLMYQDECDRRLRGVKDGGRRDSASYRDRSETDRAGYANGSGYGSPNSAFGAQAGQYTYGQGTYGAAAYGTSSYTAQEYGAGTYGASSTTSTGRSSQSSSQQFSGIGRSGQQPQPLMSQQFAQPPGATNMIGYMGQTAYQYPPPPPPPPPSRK
UniProt Q9Y5B9: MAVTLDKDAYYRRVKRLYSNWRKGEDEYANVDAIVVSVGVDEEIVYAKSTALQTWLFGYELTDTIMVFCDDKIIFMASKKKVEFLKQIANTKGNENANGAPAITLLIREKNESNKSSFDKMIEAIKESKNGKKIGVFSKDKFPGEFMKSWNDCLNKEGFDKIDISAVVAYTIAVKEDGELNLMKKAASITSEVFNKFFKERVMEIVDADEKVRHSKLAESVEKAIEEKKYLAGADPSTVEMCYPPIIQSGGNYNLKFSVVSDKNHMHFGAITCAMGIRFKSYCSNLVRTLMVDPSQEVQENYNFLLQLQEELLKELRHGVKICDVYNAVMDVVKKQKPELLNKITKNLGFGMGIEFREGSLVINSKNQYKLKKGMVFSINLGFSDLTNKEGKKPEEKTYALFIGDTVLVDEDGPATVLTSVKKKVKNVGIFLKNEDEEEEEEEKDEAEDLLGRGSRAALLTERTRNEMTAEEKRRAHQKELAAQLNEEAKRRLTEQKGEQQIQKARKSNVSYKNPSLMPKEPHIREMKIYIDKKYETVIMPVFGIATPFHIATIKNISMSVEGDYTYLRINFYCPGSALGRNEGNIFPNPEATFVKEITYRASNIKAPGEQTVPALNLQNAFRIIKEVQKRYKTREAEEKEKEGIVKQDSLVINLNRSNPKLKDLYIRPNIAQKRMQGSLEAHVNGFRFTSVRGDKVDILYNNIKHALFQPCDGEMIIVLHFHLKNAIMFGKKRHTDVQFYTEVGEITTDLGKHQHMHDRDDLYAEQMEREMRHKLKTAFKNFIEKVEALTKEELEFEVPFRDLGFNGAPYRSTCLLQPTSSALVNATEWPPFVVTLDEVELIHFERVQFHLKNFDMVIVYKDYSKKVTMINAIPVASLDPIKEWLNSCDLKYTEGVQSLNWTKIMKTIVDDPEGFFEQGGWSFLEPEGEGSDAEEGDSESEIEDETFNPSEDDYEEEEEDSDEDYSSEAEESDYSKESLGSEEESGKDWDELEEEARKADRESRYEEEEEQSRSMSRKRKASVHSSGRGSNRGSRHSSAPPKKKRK

These are yes or no findings as the source states them, for the method shown. In cells and extracts the contact can be indirect. Some entries that bind do so weakly or less than the wild type. Sequences can lack the tags named with a protein.

For the substance DDX17 (from UniProt Q92841 1-729), the binding entry is on record as “binds”.
As for SUPT16H (from UniProt Q9Y5B9 1-1047), the entry is “binds”.

The values above are taken from paper PMC13551775.
